Reference: the supplement of paper PMC6411743
± gives the standard deviation of the averaged measurements. Only a part is listed here, and it is no random draw.

Sequences of proteins named here, by UniProt entry; tags and fusion partners are left off. A change or cut given only in a name is not applied to a line headed by its entry.
UniProt Q9NSK0: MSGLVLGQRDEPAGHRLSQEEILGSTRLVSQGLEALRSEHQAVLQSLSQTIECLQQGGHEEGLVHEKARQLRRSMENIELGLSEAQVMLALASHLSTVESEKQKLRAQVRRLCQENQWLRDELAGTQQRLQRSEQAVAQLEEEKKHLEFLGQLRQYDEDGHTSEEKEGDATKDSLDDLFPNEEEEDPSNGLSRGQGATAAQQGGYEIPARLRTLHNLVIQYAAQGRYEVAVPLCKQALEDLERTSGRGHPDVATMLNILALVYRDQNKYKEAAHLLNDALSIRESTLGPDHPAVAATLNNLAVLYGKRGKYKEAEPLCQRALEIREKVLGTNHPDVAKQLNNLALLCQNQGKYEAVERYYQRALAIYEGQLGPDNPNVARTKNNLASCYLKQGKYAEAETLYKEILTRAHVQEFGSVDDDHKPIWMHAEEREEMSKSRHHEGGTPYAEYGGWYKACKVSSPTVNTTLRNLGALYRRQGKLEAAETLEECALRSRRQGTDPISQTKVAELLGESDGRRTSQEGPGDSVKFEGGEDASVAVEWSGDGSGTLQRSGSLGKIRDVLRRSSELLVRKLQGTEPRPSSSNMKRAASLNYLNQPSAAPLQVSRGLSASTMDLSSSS
UniProt Q9NUY8: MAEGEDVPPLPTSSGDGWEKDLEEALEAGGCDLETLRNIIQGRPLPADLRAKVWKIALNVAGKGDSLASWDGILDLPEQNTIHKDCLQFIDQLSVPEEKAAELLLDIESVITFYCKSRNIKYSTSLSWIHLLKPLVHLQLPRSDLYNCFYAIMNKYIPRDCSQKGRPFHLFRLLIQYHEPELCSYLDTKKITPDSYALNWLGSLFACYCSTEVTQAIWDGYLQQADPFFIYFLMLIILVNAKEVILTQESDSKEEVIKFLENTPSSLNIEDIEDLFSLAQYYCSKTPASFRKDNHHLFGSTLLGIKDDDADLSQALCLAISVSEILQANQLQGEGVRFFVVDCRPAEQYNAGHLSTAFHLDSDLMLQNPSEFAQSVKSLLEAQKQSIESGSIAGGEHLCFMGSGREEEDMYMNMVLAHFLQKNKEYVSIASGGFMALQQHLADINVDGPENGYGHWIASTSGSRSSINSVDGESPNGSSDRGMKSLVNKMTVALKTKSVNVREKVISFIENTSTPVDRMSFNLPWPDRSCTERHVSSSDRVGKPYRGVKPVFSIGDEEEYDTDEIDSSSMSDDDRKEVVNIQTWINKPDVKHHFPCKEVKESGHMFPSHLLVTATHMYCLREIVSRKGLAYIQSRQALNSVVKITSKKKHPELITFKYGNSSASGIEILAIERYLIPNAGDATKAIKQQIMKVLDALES
UniProt Q9NTM9: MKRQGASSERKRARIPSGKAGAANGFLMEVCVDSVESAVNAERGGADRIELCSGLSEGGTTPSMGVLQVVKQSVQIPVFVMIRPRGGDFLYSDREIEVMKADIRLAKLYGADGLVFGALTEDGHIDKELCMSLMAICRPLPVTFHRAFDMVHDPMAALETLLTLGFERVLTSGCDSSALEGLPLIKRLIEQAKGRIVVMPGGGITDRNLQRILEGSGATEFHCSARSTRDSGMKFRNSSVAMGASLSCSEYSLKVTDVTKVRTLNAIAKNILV
UniProt Q9NRW4: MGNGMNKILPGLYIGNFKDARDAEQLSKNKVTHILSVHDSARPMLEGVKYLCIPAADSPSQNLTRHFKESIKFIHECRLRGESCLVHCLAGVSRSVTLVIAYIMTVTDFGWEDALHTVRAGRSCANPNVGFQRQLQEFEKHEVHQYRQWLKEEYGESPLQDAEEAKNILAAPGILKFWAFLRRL
UniProt Q9P1W8, whole entry: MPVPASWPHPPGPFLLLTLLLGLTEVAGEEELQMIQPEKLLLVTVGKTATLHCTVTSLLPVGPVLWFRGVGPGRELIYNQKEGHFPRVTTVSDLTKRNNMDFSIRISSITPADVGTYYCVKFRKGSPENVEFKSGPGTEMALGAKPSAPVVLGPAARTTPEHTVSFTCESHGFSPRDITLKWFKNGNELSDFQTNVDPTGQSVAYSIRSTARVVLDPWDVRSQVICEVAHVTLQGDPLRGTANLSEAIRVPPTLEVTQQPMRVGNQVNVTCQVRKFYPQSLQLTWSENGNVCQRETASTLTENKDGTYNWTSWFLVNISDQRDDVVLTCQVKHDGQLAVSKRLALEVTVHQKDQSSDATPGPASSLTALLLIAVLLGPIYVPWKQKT
UniProt Q9UBF6, whole entry: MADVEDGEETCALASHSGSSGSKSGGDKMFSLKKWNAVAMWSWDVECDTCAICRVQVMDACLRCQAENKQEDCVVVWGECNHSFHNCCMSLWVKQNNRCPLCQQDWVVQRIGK
UniProt Q9NRF9: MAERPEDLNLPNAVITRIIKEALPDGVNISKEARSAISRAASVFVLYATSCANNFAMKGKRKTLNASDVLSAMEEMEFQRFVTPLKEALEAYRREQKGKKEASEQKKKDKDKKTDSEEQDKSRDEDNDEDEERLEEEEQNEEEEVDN

Compound: Nc1ncnc2c1ncn2[C@@H]1O[C@H](COP(=O)(O)OP(=O)(O)NP(=O)(O)O)[C@@H](O)[C@H]1O [adenylyl imidodiphosphate]
Test: NP40-soluble protein abundance relative to vehicle (solubility fold change) (ratio); higher = more soluble protein in presence of AMP-PNP
In short: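 Jurkat crude lysate prepared with a Dounce homogeniser was treated at eight concentrations spanning 0.1 to 10 mM, 10 min at room temperature then 3 min at 37 °C. Solubilisation with 0.8% NP40 and benzonase and ultracentrifugation preceded TMT labelling of the supernatant for LC-MS/MS. Fold change against the detergent-processed vehicle was determined per replicate from vsn-normalised intensities, across three independent experiments.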

Target	NP40-soluble protein abundance (concentration: 1mM)	NP40-soluble protein abundance (concentration: 2mM)	NP40-soluble protein abundance (concentration: 4mM)	NP40-soluble protein abundance (concentration: 6mM)	NP40-soluble protein abundance (concentration: 8mM)	NP40-soluble protein abundance (concentration: 10mM)
KLC4 (UniProt Q9NSK0)	1.04 ± 0.027	1.07 ± 0.11	1.04 ± 0.0083	1.02 ± 0.027	0.9997 ± 0.0053	1.05 ± 0.035
UniProt Q9NUY8 and related entries	0.961 ± 0.0094	0.999 ± 0.026	0.986 ± 0.014	1 ± 0.035	0.991 ± 0.027	1.01 ± 0.031
CUTC (UniProt Q9NTM9)	0.986 ± 0.046	0.895 ± 0.076	0.966 ± 0.045	1.01 ± 0.063	1.03 ± 0.047	1.002 ± 0.0056
UniProt Q9NRW4 and related entries	0.99 ± 0.026	0.9982 ± 0.0082	0.987 ± 0.022	0.96839 ± 0.00031	0.969 ± 0.031	0.9568 ± 0.0011
UniProt Q9P1W8 and related entries	0.9928 ± 0.0047	1.04 ± 0.041	1.02 ± 0.018	1.0109 ± 0.00039	1.0171 ± 0.00063	1.024 ± 0.0042
UniProt Q9UBF6 and related entries	1.014 ± 0.0081	1.013 ± 0.0055	1.01 ± 0.011	1.011 ± 0.0021	1 ± 0.031	1 ± 0.028
POLE3 (UniProt Q9NRF9)	1.07 ± 0.051	1.09 ± 0.079	1.03 ± 0.065	0.972 ± 0.036	0.961 ± 0.039	0.954 ± 0.015
